According to paper PMC7556876, “POMK regulates dystroglycan function via LARGE1-mediated elongation of matriglycan” (eLife, 2020):
No constants are given. Whether binding was seen depends on the method and setting. Some results given as binding are weak or reduced against the parent protein; the word gives no strength.

Sequences of proteins named here, by UniProt entry; tags and fusion partners are left off. A change or cut given only in a name is not applied to a line headed by its entry.
UniProt P19137: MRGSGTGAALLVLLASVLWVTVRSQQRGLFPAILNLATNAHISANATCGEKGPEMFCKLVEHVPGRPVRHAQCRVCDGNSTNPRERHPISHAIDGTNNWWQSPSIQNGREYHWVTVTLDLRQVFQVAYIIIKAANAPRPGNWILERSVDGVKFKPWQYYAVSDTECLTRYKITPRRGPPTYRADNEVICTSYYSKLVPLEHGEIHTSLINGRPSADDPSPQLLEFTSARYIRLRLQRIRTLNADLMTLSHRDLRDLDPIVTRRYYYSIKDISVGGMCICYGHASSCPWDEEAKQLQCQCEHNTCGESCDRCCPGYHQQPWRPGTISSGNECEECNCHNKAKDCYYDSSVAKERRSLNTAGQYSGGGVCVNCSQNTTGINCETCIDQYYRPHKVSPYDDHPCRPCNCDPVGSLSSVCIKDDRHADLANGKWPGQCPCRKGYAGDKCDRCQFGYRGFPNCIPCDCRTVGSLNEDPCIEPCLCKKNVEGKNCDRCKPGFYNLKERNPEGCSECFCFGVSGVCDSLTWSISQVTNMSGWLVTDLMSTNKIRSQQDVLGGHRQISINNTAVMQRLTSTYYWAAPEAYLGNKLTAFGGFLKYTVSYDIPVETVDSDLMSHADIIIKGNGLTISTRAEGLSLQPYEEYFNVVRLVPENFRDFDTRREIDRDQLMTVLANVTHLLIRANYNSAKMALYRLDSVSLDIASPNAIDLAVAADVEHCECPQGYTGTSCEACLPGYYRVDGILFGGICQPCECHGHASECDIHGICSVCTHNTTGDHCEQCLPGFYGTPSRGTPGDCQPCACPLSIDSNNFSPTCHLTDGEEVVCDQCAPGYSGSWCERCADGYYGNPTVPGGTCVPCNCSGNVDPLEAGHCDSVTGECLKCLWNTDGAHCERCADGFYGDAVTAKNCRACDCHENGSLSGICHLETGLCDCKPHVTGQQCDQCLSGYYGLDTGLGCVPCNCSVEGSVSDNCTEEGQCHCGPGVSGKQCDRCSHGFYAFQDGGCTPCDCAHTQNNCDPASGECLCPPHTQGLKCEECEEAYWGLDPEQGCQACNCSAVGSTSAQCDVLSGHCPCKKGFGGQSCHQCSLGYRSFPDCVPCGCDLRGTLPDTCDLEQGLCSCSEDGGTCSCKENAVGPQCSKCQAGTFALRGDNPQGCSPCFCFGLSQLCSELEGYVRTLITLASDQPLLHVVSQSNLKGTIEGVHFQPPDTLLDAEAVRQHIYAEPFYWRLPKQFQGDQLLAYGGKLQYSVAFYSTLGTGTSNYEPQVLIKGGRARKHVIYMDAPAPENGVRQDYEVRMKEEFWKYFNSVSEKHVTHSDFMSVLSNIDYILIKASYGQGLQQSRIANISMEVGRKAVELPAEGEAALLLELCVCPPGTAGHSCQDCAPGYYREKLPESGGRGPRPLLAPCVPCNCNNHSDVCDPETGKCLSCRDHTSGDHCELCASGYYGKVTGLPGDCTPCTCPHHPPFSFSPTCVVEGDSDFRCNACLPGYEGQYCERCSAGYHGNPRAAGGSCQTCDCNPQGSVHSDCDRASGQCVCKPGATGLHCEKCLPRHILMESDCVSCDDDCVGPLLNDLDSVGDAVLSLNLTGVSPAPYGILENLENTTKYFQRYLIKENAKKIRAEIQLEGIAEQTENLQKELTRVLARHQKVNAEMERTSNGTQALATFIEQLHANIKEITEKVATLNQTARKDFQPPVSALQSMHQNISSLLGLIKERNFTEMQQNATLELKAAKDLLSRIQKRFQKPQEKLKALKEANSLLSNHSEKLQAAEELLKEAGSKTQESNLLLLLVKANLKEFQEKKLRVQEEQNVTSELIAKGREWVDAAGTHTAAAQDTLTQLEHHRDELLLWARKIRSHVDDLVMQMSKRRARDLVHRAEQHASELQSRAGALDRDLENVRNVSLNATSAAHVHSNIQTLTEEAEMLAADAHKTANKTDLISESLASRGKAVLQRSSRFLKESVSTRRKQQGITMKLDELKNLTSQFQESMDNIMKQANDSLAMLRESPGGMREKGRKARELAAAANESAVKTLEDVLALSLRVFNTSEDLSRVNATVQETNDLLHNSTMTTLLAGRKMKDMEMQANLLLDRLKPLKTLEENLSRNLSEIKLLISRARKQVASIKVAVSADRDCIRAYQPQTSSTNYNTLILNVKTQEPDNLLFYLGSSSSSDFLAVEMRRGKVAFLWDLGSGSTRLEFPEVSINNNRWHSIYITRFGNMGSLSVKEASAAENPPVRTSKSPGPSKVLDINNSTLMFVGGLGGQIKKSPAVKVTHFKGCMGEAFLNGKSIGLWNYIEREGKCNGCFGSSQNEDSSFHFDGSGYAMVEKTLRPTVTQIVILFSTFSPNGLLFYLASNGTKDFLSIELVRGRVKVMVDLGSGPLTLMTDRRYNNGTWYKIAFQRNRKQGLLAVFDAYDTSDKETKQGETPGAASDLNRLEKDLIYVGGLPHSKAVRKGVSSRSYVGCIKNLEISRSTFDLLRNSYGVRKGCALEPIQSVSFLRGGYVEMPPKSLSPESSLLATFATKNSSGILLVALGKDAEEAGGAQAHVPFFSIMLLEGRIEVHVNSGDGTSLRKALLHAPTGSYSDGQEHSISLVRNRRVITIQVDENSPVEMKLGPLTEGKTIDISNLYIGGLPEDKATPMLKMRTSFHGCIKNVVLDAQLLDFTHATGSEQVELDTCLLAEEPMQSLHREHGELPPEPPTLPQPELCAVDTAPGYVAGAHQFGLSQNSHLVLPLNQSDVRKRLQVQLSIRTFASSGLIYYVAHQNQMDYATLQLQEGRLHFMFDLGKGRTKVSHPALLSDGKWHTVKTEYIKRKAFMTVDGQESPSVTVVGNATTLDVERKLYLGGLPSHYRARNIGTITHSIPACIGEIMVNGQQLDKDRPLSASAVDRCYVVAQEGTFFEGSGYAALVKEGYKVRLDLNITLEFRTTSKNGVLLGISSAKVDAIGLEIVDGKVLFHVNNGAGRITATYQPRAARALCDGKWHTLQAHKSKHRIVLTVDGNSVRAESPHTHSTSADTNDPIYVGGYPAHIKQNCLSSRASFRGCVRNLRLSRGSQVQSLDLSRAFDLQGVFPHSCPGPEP

Molecular target: T1, α-dystroglycan of control (Pomk^LoxP/LoxP) mouse skeletal muscle (mouse (endogenous in quadriceps muscle)) (UniProt Q62165)
T1 sequence (chain, O-mannose-linked glycan ending in full-length matriglycan): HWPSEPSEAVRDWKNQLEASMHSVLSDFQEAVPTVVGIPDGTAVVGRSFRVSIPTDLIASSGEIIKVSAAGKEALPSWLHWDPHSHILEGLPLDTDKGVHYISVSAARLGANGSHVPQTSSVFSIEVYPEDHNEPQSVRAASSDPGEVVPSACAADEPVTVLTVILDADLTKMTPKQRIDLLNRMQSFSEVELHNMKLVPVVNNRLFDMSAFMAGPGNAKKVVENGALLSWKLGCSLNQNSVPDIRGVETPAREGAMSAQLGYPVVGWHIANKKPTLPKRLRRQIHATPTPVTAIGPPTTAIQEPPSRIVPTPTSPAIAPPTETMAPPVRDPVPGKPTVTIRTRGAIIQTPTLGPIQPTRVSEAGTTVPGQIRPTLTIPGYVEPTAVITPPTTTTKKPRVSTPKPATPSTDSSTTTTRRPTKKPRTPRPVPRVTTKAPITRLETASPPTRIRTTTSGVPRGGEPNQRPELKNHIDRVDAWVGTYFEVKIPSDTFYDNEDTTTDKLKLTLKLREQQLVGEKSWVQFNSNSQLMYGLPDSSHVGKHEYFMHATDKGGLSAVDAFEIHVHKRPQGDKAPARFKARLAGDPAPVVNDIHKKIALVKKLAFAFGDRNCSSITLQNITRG
Assay: ELISA; solid-phase binding assay: WGA eluates diluted 1:50 in TBS coated on polystyrene ELISA microplates overnight at 4°C; laminin-111; detected with L9393 and HRP-conjugated anti-rabbit IgG; read as relative Bmax; some samples digested with α-xylosidase and β-glucuronidase (laminin binding reduced); only the binder purified

binding: binds
Substance: laminin-111 (mouse Engelbreth-Holm-Swarm (EHS) laminin) (from UniProt P19137 25-3083; P02469 22-1786; P02468 34-1607) (complex)
